Data source: PubChem BioAssay AID1259327 (Drosophila RNAi Screening Center, 2017)

- Assay: 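Knock-downs altering cellular ATP with no metal added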
- Cell system: Drosophila S2R+ cells
- Reagent: long dsRNA against Drosophila genes
- Timing: 5 days (water added on day 4, read one day later)
- Challenge: water added as vehicle, no metal, one day before read-out
- Measured: 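Luciferase ATP signal per well, normalised to plate mean, duplicate average converted to z-score across plates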
- Scale: ATP z-score: higher = more total ATP than typical wells; ATP luminescence: higher = more total ATP
- Rule for the call: 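a hit is any knock-down whose absolute ATP z-score is greater than 1.5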
- Meaning of the calls: active = hit: ATP up or down; inactive = no clear ATP change
Here is an unselected part of about 3,100 deposited reagents. 378 of them (12%) were called active. 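Hits include both directions; z-score sign shows ATP rise or fall; raw luminescence values are not plate-normalised.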 Names joined by + are all predicted targets of the reagent. No sequences are given here. The record does not give: the amount of reagent.

gene knocked down	dsRNA	ATP z-score, duplicate mean	ATP luminescence, replicate 1 (RLU)	ATP luminescence, replicate 2 (RLU)	outcome
Abcd1	DRSC17157	0.892	8.14e5	7.82e5	inactive
Abcd1	DRSC39677	0.694	4.97e5	5.28e5	inactive
CG17929	DRSC15291	2.43	2.95e5	1.31e6	active
CG17929	DRSC39673	1.92	5.74e5	6.18e5	active
Gr61a	DRSC08358	-1.17	4.91e5	5.36e5	inactive
Gr61a	DRSC39830	-0.628	3.87e5	4.87e5	inactive
twz	DRSC04069	1.46	8.89e5	8.74e5	inactive
twz	DRSC25832	0.635	9.96e5	8.61e5	inactive
Gr21a	DRSC00366	-0.00315	7.06e5	7.05e5	inactive
Gr21a	DRSC28583	-1.67	3.84e5	8.39e5	active
CG43672 + CG43673	DRSC19452	0.98	9.16e5	9.33e5	inactive
CG43672 + CG43673	DRSC20108	-0.643	6.78e5	9.96e5	inactive
CG3652	DRSC00624	-0.198	7.16e5	6.94e5	inactive
GABA-B-R3	DRSC00561	-0.586	6.27e5	6.63e5	inactive
GABA-B-R3	DRSC29404	0.177	8.59e5	8.31e5	inactive
CG5888	DRSC01929	0.104	3.65e5	6.16e5	inactive
CG5888	DRSC28190	-0.131	1.20e6	1.05e6	inactive
Remo	DRSC19710	0.944	7.54e5	7.58e5	inactive
CG30471	DRSC07096	0.0695	7.00e5	7.78e5	inactive
polyph	DRSC06254	1.15	6.86e5	7.61e5	inactive
rdgB	DRSC20365	-0.0274	7.61e5	6.86e5	inactive
rdgB	DRSC27840	-1.06	9.88e5	9.39e5	inactive
CG3649	DRSC04400	0.129	7.11e5	7.68e5	inactive
CG3649	DRSC28728	-0.814	7.52e5	7.00e5	inactive
CG3036	DRSC00562	-0.123	4.62e5	4.79e5	inactive
CG3036	DRSC24856	0.454	9.20e5	8.38e5	inactive
CG17991	DRSC15294	2.48	7.30e5	7.96e5	active
Gr59b	DRSC04179	-0.308	6.82e5	7.04e5	inactive
CG9825	DRSC04569	0.182	7.43e5	7.47e5	inactive
CG9825	DRSC25634	-0.71	7.68e5	7.56e5	inactive
Sdr	DRSC15517	0.34	7.99e5	6.84e5	inactive
Sdr	DRSC36929	-0.0219	5.61e5	5.94e5	inactive
Sdr	DRSC36930	-0.233	5.53e5	5.67e5	inactive
Ir52a	DRSC06262	1.11	7.18e5	7.22e5	inactive
subdued	DRSC15137	0.0566	7.29e5	6.95e5	inactive
subdued	DRSC39505	1.07	5.63e5	4.86e5	inactive
rost	DRSC03603	0.94	5.33e5	5.57e5	inactive
Ctns	DRSC15175	-1.11	2.87e5	5.44e5	inactive
Ctns	DRSC39640	1.69	5.54e5	6.07e5	active
CG3592	DRSC18315	1.23	7.09e5	7.58e5	inactive
CG3592	DRSC39849	-0.651	4.68e5	3.96e5	inactive
Vha100-1	DRSC14148	0.696	7.81e5	7.74e5	inactive
Vha100-1	DRSC39862	-0.316	5.00e5	6.21e5	inactive
AkhR	DRSC03329	0.0443	4.48e5	5.18e5	inactive
AkhR	DRSC28694	-0.365	9.47e5	6.26e5	inactive
meigo	DRSC15877	0.276	3.26e5	7.55e5	inactive
meigo	DRSC25836	0.332	9.49e5	8.33e5	inactive
CG11961	DRSC06099	0.576	7.91e5	7.95e5	inactive
CG11961	DRSC39529	-0.476	4.56e5	3.89e5	inactive
Serinc	DRSC11296	-0.386	5.51e5	8.33e5	inactive
CG1246	DRSC08275	1.19	7.52e5	7.02e5	inactive
CG1246	DRSC39873	-1.8	4.29e5	4.33e5	active
CG32262	DRSC08165	0.57	7.98e5	7.85e5	inactive
CG32262	DRSC29141	0.745	9.74e5	8.56e5	inactive
Sr-CI	DRSC00790	0.119	7.65e5	7.13e5	inactive
Sr-CI	DRSC23942	0.101	8.06e5	9.20e5	inactive
CG9903	DRSC20213	-0.0342	7.43e5	8.04e5	inactive
CG9903	DRSC39657	0.426	4.35e5	5.55e5	inactive
MFS1	DRSC04115	-0.727	6.71e5	6.28e5	inactive
MFS1	DRSC27926	-1.1	9.52e5	1.04e6	inactive
kirre	DRSC18785	-1.59	4.44e5	6.66e5	active
kirre	DRSC24733	0.967	9.98e5	9.42e5	inactive
Cds	DRSC10938	-1.12	6.09e5	6.13e5	inactive
pippin	DRSC04489	-0.0526	7.34e5	7.16e5	inactive
pippin	DRSC39700	-1.94	3.47e5	3.19e5	active
CG7573	DRSC10884	-0.327	8.55e5	8.51e5	inactive
stan	DRSC07697	-1.05	5.70e5	4.79e5	inactive
stan	DRSC39642	-0.132	4.60e5	4.52e5	inactive

Just “ATP z-score, duplicate mean”, for 4 of the entries above:
CG17991 [DRSC15294] = 2.48
Gr59b [DRSC04179] = -0.308
CG9825 [DRSC04569] = 0.182
CG9825 [DRSC25634] = -0.71
